Laboratory results: PubChem BioAssay AID743121 (NCATS, 2013)
Screen: 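Partners whose loss is lethal together with topoisomerase I blockade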 (primary screen). Cell system: MDA-MB-231 cells, a human breast cancer line. Reagent: single siRNA against human genes, 20 nM siRNA (0.8 pmol per well). Duration: 120 h (drug added 48 h after transfection, read 72 h later). Treatment: camptothecin 20 nM (about EC30) for 72 h; vehicle 0.1% DMSO in parallel plates. Detection: 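Cell viability by ATP luminescence (CellTiter-Glo) as % of non-targeting siRNA wells, and the log2 ratio of viability without drug over viability with camptothecin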. Reading the numbers: log2 vehicle/camptothecin viability: higher = stronger sensitisation to camptothecin; viability with camptothecin: higher = more viable cells. Units: viability with camptothecin in % of control. Rule for the call: 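Each gene scored by redundant siRNA activity (RSA) over its individual siRNA ratios; a gene is called active at p < 0.001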.
In all, the deposit lists about 26,000 reagents; below is a random part of them. Over the whole deposit, 167 (0.63%) are marked active. 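Calls are per gene from RSA p-values that are not deposited; an individual active-marked siRNA can sensitise only weakly.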 Entries without a mark were called inactive. The numbers tell different reagents against one gene apart. Not all columns of the deposit are shown.

{"target": "AGTR1", "siRNA no.": 1, "log2 vehicle/camptothecin viability": -0.215, "viability with camptothecin": 96.1}
{"target": "AGTR1", "siRNA no.": 2, "log2 vehicle/camptothecin viability": -0.525, "viability with camptothecin": 91.6}
{"target": "AGTR1", "siRNA no.": 3, "log2 vehicle/camptothecin viability": -0.207, "viability with camptothecin": 94.8}
{"target": "AGTR1", "siRNA no.": 4, "log2 vehicle/camptothecin viability": -0.372, "viability with camptothecin": 77.6}
{"target": "VSNL1", "siRNA no.": 1, "log2 vehicle/camptothecin viability": -0.199, "viability with camptothecin": 61.6}
{"target": "VSNL1", "siRNA no.": 2, "log2 vehicle/camptothecin viability": -0.301, "viability with camptothecin": 104}
{"target": "VSNL1", "siRNA no.": 3, "log2 vehicle/camptothecin viability": -0.185, "viability with camptothecin": 95.8}
{"target": "VSNL1", "siRNA no.": 4, "log2 vehicle/camptothecin viability": -0.0677, "viability with camptothecin": 101}
{"target": "CYP2F1", "siRNA no.": 1, "log2 vehicle/camptothecin viability": -0.254, "viability with camptothecin": 64.1}
{"target": "CYP2F1", "siRNA no.": 2, "log2 vehicle/camptothecin viability": -0.382, "viability with camptothecin": 65.8}
{"target": "CYP2F1", "siRNA no.": 3, "log2 vehicle/camptothecin viability": -0.128, "viability with camptothecin": 8.84}
{"target": "CYP2F1", "siRNA no.": 4, "log2 vehicle/camptothecin viability": -0.412, "viability with camptothecin": 76.6}
{"target": "PHF11", "siRNA no.": 1, "log2 vehicle/camptothecin viability": -0.428, "viability with camptothecin": 95.8}
{"target": "PHF11", "siRNA no.": 2, "log2 vehicle/camptothecin viability": 0.102, "viability with camptothecin": 80.9}
{"target": "PHF11", "siRNA no.": 3, "log2 vehicle/camptothecin viability": -0.276, "viability with camptothecin": 94.1}
{"target": "PHF11", "siRNA no.": 4, "log2 vehicle/camptothecin viability": -0.578, "viability with camptothecin": 57.2}
{"target": "SERPING1", "siRNA no.": 1, "log2 vehicle/camptothecin viability": 0.071, "viability with camptothecin": 84.7}
{"target": "SERPING1", "siRNA no.": 2, "log2 vehicle/camptothecin viability": 0.188, "viability with camptothecin": 54}
{"target": "SERPING1", "siRNA no.": 3, "log2 vehicle/camptothecin viability": -0.177, "viability with camptothecin": 51.5}
{"target": "SERPING1", "siRNA no.": 4, "log2 vehicle/camptothecin viability": 0.608, "viability with camptothecin": 63.5}
{"target": "PHYKPL", "siRNA no.": 1, "log2 vehicle/camptothecin viability": -0.0397, "viability with camptothecin": 70.2}
{"target": "PHYKPL", "siRNA no.": 2, "log2 vehicle/camptothecin viability": 0.301, "viability with camptothecin": 35.9}
{"target": "PHYKPL", "siRNA no.": 3, "log2 vehicle/camptothecin viability": 0.478, "viability with camptothecin": 60}
{"target": "PLXNB3", "siRNA no.": 1, "log2 vehicle/camptothecin viability": -0.307, "viability with camptothecin": 80.2}
{"target": "PLXNB3", "siRNA no.": 2, "log2 vehicle/camptothecin viability": -0.14, "viability with camptothecin": 80.4}
{"target": "PLXNB3", "siRNA no.": 3, "log2 vehicle/camptothecin viability": -0.375, "viability with camptothecin": 17.1}
{"target": "PLXNB3", "siRNA no.": 4, "log2 vehicle/camptothecin viability": 0.205, "viability with camptothecin": 40.8}
{"target": "MAS1L", "siRNA no.": 1, "log2 vehicle/camptothecin viability": -0.563, "viability with camptothecin": 85.2}
{"target": "MAS1L", "siRNA no.": 2, "log2 vehicle/camptothecin viability": -0.283, "viability with camptothecin": 54.8}
{"target": "MAS1L", "siRNA no.": 3, "log2 vehicle/camptothecin viability": -0.155, "viability with camptothecin": 115}
{"target": "MAS1L", "siRNA no.": 4, "log2 vehicle/camptothecin viability": -0.0304, "viability with camptothecin": 96.4}
{"target": "GPR87", "siRNA no.": 1, "log2 vehicle/camptothecin viability": -0.313, "viability with camptothecin": 83.9}
{"target": "GPR87", "siRNA no.": 2, "log2 vehicle/camptothecin viability": -0.25, "viability with camptothecin": 59.2}
{"target": "GPR87", "siRNA no.": 3, "log2 vehicle/camptothecin viability": -0.0753, "viability with camptothecin": 83.6}
{"target": "SCN4A", "siRNA no.": 1, "log2 vehicle/camptothecin viability": -0.409, "viability with camptothecin": 45.2}
{"target": "SCN4A", "siRNA no.": 2, "log2 vehicle/camptothecin viability": -0.136, "viability with camptothecin": 87.6}
{"target": "SCN4A", "siRNA no.": 3, "log2 vehicle/camptothecin viability": -0.332, "viability with camptothecin": 69.3}
{"target": "SCN4A", "siRNA no.": 4, "log2 vehicle/camptothecin viability": -0.0792, "viability with camptothecin": 75.6}

A portion of the results above, as a working copy:
{"target": "PHYKPL", "siRNA no.": 3, "log2 vehicle/camptothecin viability": 0.478, "viability with camptothecin": 60}
{"target": "PLXNB3", "siRNA no.": 1, "log2 vehicle/camptothecin viability": -0.307, "viability with camptothecin": 80.2}
{"target": "PLXNB3", "siRNA no.": 2, "log2 vehicle/camptothecin viability": -0.14, "viability with camptothecin": 80.4}
{"target": "PLXNB3", "siRNA no.": 3, "log2 vehicle/camptothecin viability": -0.375, "viability with camptothecin": 17.1}
